No constants are given. Whether binding was seen depends on the method and setting. Binding seen in cells or lysates may run through a third protein. Some results given as binding are weak or reduced against the parent protein; the word gives no strength.

The chains behind the UniProt entries cited, without tags or fusion partners. Where a name states a change or a piece, a line headed by the entry shows the natural chain unless it says otherwise. A line that says so, or that is headed by a name, gives the form on record, which may keep a tag or linker. Residues count along the entry.
UniProt P43407: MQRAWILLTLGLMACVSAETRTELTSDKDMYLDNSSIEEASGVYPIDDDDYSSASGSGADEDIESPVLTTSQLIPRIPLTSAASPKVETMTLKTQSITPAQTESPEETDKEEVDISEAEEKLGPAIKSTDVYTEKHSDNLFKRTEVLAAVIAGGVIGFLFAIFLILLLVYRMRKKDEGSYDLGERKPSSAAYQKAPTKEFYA
S2ED: extracellular core protein of murine syndecan-2 (E19-F141) fused at the N-terminus to GST: residues 19-141 of P43407
S2EDΔP124-F141 (S2ED lacking the adhesion regulatory domain), GST fusion: residues 19-123 of P43407

Holding throughout (experiment): pull-down; GST or GST fusion proteins bound to glutathione-Sepharose beads, incubated 1 h with endothelial cell lysate (1% Triton X-100 in TBS, protease and phosphatase inhibitors), washed twice in TBS; western blot for CD148; only the target purified
(In general: In western blotting, separated proteins are transferred to a membrane and probed.)

In assay [1] the target is S2EDΔP124-F141 (S2ED lacking the adhesion regulatory domain), GST fusion (murine) (UniProt P43407).
The target in assay [2] is S2EDΔL73-G123 (GAG attachment domain and C-terminal adhesion regulatory domain only), GST fusion (murine) (UniProt P43407).
In assay [3] the target is S2ED: extracellular core protein of murine syndecan-2 (E19-F141) fused at the N-terminus to GST (murine) (UniProt P43407).

B1: protein tyrosine phosphatase receptor CD148 (receptor, UniProt Q64455 29-1238)
chain: RQGQVLCAGAAPNPIFDIEAVVSPTSVLLTWKHNDSGASECRIENKMESNLTFPVKNQTSCNITGLSPGTSYTFSIISVTTNETLNKTITTEPWPVSDLHVTSVGVTQARLTWSNANGTASYRMLIEELTTHSSVNISGLKPGTNNSFAFPESNETQADFAVAEEVPDANGTKRIPVTNLSQLHKNSLVSVDPPSGQDPSLTEILLTDLKPDTQYNATIYSQAANGTEGQPRNKVFKTNSTQVSDVRAMNISASSMTLTWKSNYDGSRTSIVYKIHVAGGTHSVNQTVNKTEAIILGLSSSTLYNITVHPFLGQTEGTPGFLQVYTSPDQVSDFRVTNVSTRAIGLAWRSNDSKSFEIFIKQDGGEKHRNASTGNQSYMVEDLKPGTSYHFEIIPRGPDGTEGLSSTVNGSTDPSAVTDIRVVNISTTEMQLEWQNTDDASGYTYHLVLESKSGSIIRTNSSQKWITVGSLTPGTLYNVTIFPEVDQIQGISNSITQYTRPSSVSHIEVNTTTTTAAIRWKNEDAASASYAYSVLILKTGDGSNVTSNFTKDPSILIPELIPGVSYTVKILTQVGDGTTSLVPGWNLFCTEPEPVTSFHCEVVPKEPALVLKWACPFGMYTGFELGVRSDSWDNMTRLENCTSDDDTECRTEVAYLNFSTSYNISIATLSCGKMALPAQNICTTGITDPPTPDGSPNITSVSHNSVKVKFSGFEASHGPIKAYAVILTTGEAAQPSADVLKYTYEDFKRGASDTYVTYLIRIEEKGQSQGLSEVLNYEIDVGNQSTTLGYYNGRLEPLGSYRACVAGFTNITYNLQNDGLINGDESYVSFSPYSEAVFLPQDPGVICGAVFGCIFGALAITAVGGFIFWRKKRTDAKNNEVSFSQIKPKKSKLIRVENFEAYFKKQQADSNCGFAEEYEDLKLIGISLPKYTAEIAENRGKNRYNNVLPYDISRVKLSVQTHSTDDYINANYMPGYHSKKDFIATQGPLPNTLKDFWRMVWEKNVYAIVMLTKCVEQGRTKCEEYWPSKQAQDYGDITVAMTSEVVLPEWTIRDFVVKNMQNSESHPLRQFHFTSWPDHGVPDTTDLLINFRYLVRDYMKQIPPESPILVHCSAGVGRTGTFIAIDRLIYQIENENTVDVYGIVYDLRMHRPLMVQTEDQYVFLNQCVLDIIRAQKDSKVDLIYQNTTAMTIYENLEPVSMFGKTNGYIA
Regarding B1, the figures for the binding entry in assay [1], in assay [2] and in assay [3] were “no binding”, “binds” and “binds”, respectively.

Source of the values: PMC4215719.
